Results from the supplement of paper PMC9135407.
Several values for one entry are separate records, joined by “and”; a condition that tells them apart may be missing. Identical values can stand only once. Counter-ions that a name gives are not always drawn. ± gives the standard deviation of the averaged measurements. This is one part of the list. Part of the spread comes from offsets between plates or batches.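 Primary human stellate myofibroblasts activated in culture; inactivation shown by regained lipid droplets. Readout: fraction of Hoechst-counted cells exceeding a per-plate Bodipy threshold, duplicate wells, each plate with DMSO negative and nortriptyline positive controls. Hits: control-normalized score beyond the plate's top-tenth-percentile nortriptyline wells, or among its three best wells. Final well concentrations unstated.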

System: primary human hepatic stellate cells (donor 1)
Test: percent Bodipy-positive cells; higher = more lipid droplet accumulation
Details: 48 h
[1] = library stock concentration: 10 mM
[2] = library stock concentration: 1 mM
[3] = library stock concentration: 3.33 mM
[4] = library stock concentration: 5.9 mM

Cc1ccc(/N=C/N(C)/C=N/c2ccc(C)cc2C)c(C)c1 [Amitraz]
percent Bodipy-positive cells (library stock concentration: 6.8 mM): 6.14 ± 1.7%
percent Bodipy-positive cells [1]: 32.6 ± 6.7%

CCCCCCC(=O)O[C@H]1CC[C@H]2[C@@H]3C[C@@H](O)C4=CC(=O)CC[C@]4(C)[C@H]3CC[C@]12C [6.beta.-Testosterone Enanthate]
percent Bodipy-positive cells [2]: 12.9 ± 0.4%

CCCN(CCC)C1Cc2cc(OC)c(OC)cc2C1
percent Bodipy-positive cells [1]: 15.1% and 9.38%

CC[C@]1(O)CC[C@H]2[C@@H]3CCC4=CCCC[C@@H]4[C@H]3CC[C@@]21C [Ethylestrenol]
percent Bodipy-positive cells [1]: 23.2 ± 7%

CC(=O)O[C@H]1C[C@@H]2CC[C@@H]3[C@H](CC[C@@]4(C)[C@H]3C[C@H]([N+]3(C)CCCCC3)[C@@H]4OC(C)=O)[C@@]2(C)C[C@@H]1[N+]1(C)CCCCC1 [Pancuronium bromide]
percent Bodipy-positive cells: 10.7 ± 1.1%
percent Bodipy-positive cells [1]: 22.2 ± 4.2%

CC(=O)O[C@H]1C[C@@H]2CC[C@@H]3[C@H](CC[C@@]4(C)[C@H]3C[C@H]([N+]3(C)CCCCC3)[C@@H]4OC(C)=O)[C@@]2(C)C[C@@H]1[N+]1(C)CCCCC1 [Pancuronium dibromide]
percent Bodipy-positive cells [3]: 7 ± 4.2%
percent Bodipy-positive cells [1]: 21.6 ± 4.2%

CC(=O)O[C@H]1C[C@@H]2CC[C@@H]3[C@H](CC[C@@]4(C)[C@H]3C[C@H]([N+]3(C)CCCCC3)[C@@H]4OC(C)=O)[C@@]2(C)C[C@@H]1[N+]1(C)CCCCC1 [Pancuronium]
percent Bodipy-positive cells [1]: 12.7 ± 5.4%

C[C@]12CCC(=O)C[C@@H]1CC[C@@H]1[C@@H]2CC[C@]2(C)C(=O)CC[C@@H]12 [5alpha-androstan-3,17-dione]
percent Bodipy-positive cells [1]: 36.1 ± 5.4%

O=C1C=CC[C@@H]2[C@H]3CCCN4CCC[C@@H](CN12)[C@@H]34 [Sophocarpine]
percent Bodipy-positive cells [3]: 8.25 ± 3.6%
percent Bodipy-positive cells [1]: 13.2 ± 4.3%

CCCCC/C=C\C/C=C\C/C=C\C/C=C\CCCC(=O)Nc1cccc([N+](=O)[O-])c1 [Arachidonoyl m-Nitroaniline]
percent Bodipy-positive cells [2]: 22.3 ± 16%

CC(N)Cc1c[nH]c2ccc(OCc3cccs3)cc12.Cl (stereo not drawn)
percent Bodipy-positive cells [1]: 97.5 ± 0.13%

CC(N)Cc1cnc[nH]1 (stereo not drawn)
percent Bodipy-positive cells [1]: 6.07 ± 0.25%

O=C1Nc2ccccc2C2(CCN(CCc3ccc(C(F)(F)F)cc3)CC2)O1
percent Bodipy-positive cells [1]: 43.2 ± 6.2%

NC(CCCCCP(=O)(O)O)C(=O)O (stereo not drawn) [(?)-2-Amino-7-phosphonoheptanoic acid]
percent Bodipy-positive cells [1]: 41.2 ± 9%

O=C(NCC1CCOCC1)c1cnc(Nc2ccc(Cl)cc2Cl)nc1C(F)(F)F
percent Bodipy-positive cells [3]: 12.1 ± 4.6%
percent Bodipy-positive cells [1]: 31.8 ± 23%

CN1CCc2cccc(Cl)c2CC1
percent Bodipy-positive cells [1]: 22 ± 3.1%

COc1c2c(cc3c1OCO3)CCN(C)C2 [Hydrocotarnine hydrobromide]
percent Bodipy-positive cells: 41.4 ± 21%

COC(=O)[C@@H](N)CCCNC(=N)N[N+](=O)[O-]
percent Bodipy-positive cells (library stock concentration: 21.4 mM): 16 ± 7.5%

COC(=O)[C@@H](N)CCCNC(=N)N[N+](=O)[O-] [L-NAME hydrochloride]
percent Bodipy-positive cells [1]: 7.14 ± 1.7%

COC(=O)[C@@H](N)CCCNC(=N)N[N+](=O)[O-] [NG-Nitro-L-arginine methyl ester hydrochloride]
percent Bodipy-positive cells [1]: 29.2 ± 1.4%

COC(=O)[C@@H](N)CCCNC(=N)N[N+](=O)[O-] [L-NAME (hydrochloride)]
percent Bodipy-positive cells [2]: 8.48 ± 0.21%

Cn1c(CCCC(=O)O)nc2cc(N(CCCl)CCCl)ccc21 [Bendamustine hydrochloride]
percent Bodipy-positive cells [1]: 64.9 ± 3.3%

Cn1c(CCCC(=O)O)nc2cc(N(CCCl)CCCl)ccc21 [Bendamustine HCl]
percent Bodipy-positive cells [3]: 10.1 ± 0.47%
percent Bodipy-positive cells [1]: 13.2 ± 1.1%

CN1CCc2cc(O)cc3c2[C@H]1Cc1ccc(O)c(O)c1-3 [R(-)-2,10,11-Trihydroxyaporphine hybrobromide]
percent Bodipy-positive cells [1]: 38.4 ± 5.7%

NC(CP(=O)(O)O)C(=O)O (stereo not drawn)
percent Bodipy-positive cells [1]: 32.5 ± 2.9%

CN[C@@H]1[C@@H](O)[C@@H](O[C@@H]2[C@@H](O)[C@H](O[C@H]3O[C@H](CN)CC[C@H]3N)[C@@H](N)C[C@H]2N)OC[C@]1(C)O.CN[C@@H]1[C@@H](O)[C@@H](O[C@@H]2[C@@H](O)[C@H](O[C@H]3O[C@H]([C@@H](C)N)CC[C@H]3N)[C@@H](N)C[C@H]2N)OC[C@]1(C)O.CN[C@@H]1[C@@H](O)[C@@H](O[C@@H]2[C@@H](O)[C@H](O[C@H]3O[C@H]([C@@H](C)NC)CC[C@H]3N)[C@@H](N)C[C@H]2N)OC[C@]1(C)O [Gentamicin sulfate]
percent Bodipy-positive cells (library stock concentration: 3.5 mM): 2.51 ± 1.3%
percent Bodipy-positive cells [1]: 17.1 ± 0.86%

CN[C@@H]1[C@@H](O)[C@@H](O[C@@H]2[C@@H](O)[C@H](O[C@H]3O[C@H](CN)CC[C@H]3N)[C@@H](N)C[C@H]2N)OC[C@]1(C)O.CN[C@@H]1[C@@H](O)[C@@H](O[C@@H]2[C@@H](O)[C@H](O[C@H]3O[C@H]([C@@H](C)N)CC[C@H]3N)[C@@H](N)C[C@H]2N)OC[C@]1(C)O.CN[C@@H]1[C@@H](O)[C@@H](O[C@@H]2[C@@H](O)[C@H](O[C@H]3O[C@H]([C@@H](C)NC)CC[C@H]3N)[C@@H](N)C[C@H]2N)OC[C@]1(C)O [Gentamicine sulfate]
percent Bodipy-positive cells: 30.9 ± 5.9%

CN1CCN(C(=O)O[C@H]2c3nccnc3C(=O)N2c2ccc(Cl)cn2)CC1
percent Bodipy-positive cells [1]: 44.1 ± 5.3%

CN1CCN(C(=O)O[C@H]2c3nccnc3C(=O)N2c2ccc(Cl)cn2)CC1 [Eszopiclone]
percent Bodipy-positive cells [1]: 20.6 ± 8.3%

O=C1Nc2ccc(Cl)cc2C(c2ccccc2Cl)=NC1O (stereo not drawn) [Lorazepam]
percent Bodipy-positive cells [1]: 10.2 ± 2.4%

O=C1CC[C@@]2(O)[C@H]3Cc4ccc(O)c5c4[C@@]2(CCN3CC2CC2)[C@H]1O5 [Naltrexone hydrochloride]
percent Bodipy-positive cells [4]: 8.81 ± 0.31%
percent Bodipy-positive cells [1]: 39.1% and 47.3%

O=C1CC[C@@]2(O)[C@H]3Cc4ccc(O)c5c4[C@@]2(CCN3CC2CC2)[C@H]1O5 [Naltrexone HCl]
percent Bodipy-positive cells [3]: 24 ± 5.7%
percent Bodipy-positive cells [4]: 8.91 ± 3.7%
percent Bodipy-positive cells [1]: 7.54 ± 0.71%

O=C1CC[C@@]2(O)[C@H]3Cc4ccc(O)c5c4[C@@]2(CCN3CC2CC2)[C@H]1O5 [Naltrexone hydrochloride dihydrate]
percent Bodipy-positive cells: 24.5 ± 2.3%
